Experimental data published in paper doi:10.1101/2025.04.25.648738.
Results are given in words; binding and its absence hold for the method and conditions named. In cells and extracts the contact can be indirect. Some binding calls cover weakened binding; strength is not graded here. Blank lines part the entries; values can stand above or below the molecule they belong to.

Chains of the proteins cited; added tags and fusions are not shown. Lines headed by an entry give the natural chain unless they say otherwise; changes in a name come on top. A line that says so, or that is headed by a name, gives the form on record, which may keep a tag or linker.
ZNF207 K42E point mutant, 3xFLAG-tagged (O43670, form named): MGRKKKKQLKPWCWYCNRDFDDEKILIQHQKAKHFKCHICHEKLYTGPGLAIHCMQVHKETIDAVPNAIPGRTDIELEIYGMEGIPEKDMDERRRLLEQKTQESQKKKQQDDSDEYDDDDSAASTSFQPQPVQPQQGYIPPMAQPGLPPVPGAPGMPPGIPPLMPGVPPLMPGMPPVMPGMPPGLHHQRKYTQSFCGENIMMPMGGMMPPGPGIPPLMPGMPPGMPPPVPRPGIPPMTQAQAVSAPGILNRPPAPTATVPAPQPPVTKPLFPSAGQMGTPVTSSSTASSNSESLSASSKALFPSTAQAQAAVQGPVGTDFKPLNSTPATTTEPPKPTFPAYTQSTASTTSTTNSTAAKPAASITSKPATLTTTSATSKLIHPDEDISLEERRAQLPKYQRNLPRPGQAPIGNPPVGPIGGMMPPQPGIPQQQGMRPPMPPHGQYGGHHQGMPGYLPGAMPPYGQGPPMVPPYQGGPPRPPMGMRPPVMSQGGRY
ZNF207 open reading frame, siRNA-resistant, with a C-terminal 3xFLAG tag (wild type) (O43670, form named): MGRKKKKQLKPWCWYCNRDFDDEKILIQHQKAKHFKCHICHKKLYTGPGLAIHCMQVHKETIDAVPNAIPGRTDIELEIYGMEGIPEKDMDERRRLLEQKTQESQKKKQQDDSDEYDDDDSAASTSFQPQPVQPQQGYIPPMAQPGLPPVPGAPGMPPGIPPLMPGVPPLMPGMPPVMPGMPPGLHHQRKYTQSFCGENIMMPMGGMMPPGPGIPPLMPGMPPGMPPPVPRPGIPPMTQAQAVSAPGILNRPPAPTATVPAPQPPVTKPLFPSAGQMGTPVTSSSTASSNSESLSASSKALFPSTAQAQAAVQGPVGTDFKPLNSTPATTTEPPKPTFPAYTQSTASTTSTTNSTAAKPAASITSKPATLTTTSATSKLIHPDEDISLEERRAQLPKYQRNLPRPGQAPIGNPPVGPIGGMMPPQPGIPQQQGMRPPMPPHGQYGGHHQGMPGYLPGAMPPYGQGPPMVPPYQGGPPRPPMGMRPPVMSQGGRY
UniProt O75533: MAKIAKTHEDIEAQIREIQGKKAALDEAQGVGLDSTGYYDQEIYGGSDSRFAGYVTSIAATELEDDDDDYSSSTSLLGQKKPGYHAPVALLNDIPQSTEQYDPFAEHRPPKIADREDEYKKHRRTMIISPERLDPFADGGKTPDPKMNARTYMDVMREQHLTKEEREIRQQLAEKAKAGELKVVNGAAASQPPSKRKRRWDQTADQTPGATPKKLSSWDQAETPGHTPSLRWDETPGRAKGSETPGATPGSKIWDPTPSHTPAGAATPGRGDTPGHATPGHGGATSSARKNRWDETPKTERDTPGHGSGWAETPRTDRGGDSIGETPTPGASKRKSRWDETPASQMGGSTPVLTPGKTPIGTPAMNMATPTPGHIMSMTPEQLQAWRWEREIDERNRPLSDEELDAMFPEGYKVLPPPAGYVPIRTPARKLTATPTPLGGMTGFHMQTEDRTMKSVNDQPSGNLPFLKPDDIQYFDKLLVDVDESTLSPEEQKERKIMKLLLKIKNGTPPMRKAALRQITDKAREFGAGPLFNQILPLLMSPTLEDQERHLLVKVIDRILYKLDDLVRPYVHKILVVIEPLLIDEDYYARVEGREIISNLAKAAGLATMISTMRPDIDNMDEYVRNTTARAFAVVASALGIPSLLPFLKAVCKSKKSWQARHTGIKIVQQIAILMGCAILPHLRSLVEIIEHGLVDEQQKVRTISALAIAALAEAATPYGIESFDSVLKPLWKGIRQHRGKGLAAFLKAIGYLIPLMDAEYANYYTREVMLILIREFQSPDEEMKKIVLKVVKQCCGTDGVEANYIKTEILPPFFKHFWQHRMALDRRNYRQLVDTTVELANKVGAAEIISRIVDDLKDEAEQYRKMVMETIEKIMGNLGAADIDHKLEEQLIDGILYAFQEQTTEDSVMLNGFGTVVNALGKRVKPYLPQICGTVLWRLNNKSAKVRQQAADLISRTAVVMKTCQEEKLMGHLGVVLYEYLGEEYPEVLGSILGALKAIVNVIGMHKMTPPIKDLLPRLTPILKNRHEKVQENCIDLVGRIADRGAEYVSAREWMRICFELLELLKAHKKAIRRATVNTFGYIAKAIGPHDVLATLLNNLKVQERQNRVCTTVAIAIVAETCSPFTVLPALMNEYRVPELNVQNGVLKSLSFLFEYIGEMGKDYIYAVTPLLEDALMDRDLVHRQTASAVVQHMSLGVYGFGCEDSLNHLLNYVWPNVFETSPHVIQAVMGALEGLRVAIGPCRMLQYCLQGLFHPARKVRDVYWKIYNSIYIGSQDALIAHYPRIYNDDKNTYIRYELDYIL
UniProt P08621: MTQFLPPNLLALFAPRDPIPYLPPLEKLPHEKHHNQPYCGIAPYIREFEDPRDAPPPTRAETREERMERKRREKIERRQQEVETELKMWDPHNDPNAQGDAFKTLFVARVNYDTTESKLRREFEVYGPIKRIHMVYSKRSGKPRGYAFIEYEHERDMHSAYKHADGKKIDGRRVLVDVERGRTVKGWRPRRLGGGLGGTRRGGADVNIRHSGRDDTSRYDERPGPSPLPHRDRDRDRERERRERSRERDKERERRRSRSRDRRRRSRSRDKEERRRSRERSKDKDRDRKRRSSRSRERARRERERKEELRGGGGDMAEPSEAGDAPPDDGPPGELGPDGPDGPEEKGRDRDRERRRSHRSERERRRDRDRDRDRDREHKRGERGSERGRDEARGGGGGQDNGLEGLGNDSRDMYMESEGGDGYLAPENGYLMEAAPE
UniProt O75643: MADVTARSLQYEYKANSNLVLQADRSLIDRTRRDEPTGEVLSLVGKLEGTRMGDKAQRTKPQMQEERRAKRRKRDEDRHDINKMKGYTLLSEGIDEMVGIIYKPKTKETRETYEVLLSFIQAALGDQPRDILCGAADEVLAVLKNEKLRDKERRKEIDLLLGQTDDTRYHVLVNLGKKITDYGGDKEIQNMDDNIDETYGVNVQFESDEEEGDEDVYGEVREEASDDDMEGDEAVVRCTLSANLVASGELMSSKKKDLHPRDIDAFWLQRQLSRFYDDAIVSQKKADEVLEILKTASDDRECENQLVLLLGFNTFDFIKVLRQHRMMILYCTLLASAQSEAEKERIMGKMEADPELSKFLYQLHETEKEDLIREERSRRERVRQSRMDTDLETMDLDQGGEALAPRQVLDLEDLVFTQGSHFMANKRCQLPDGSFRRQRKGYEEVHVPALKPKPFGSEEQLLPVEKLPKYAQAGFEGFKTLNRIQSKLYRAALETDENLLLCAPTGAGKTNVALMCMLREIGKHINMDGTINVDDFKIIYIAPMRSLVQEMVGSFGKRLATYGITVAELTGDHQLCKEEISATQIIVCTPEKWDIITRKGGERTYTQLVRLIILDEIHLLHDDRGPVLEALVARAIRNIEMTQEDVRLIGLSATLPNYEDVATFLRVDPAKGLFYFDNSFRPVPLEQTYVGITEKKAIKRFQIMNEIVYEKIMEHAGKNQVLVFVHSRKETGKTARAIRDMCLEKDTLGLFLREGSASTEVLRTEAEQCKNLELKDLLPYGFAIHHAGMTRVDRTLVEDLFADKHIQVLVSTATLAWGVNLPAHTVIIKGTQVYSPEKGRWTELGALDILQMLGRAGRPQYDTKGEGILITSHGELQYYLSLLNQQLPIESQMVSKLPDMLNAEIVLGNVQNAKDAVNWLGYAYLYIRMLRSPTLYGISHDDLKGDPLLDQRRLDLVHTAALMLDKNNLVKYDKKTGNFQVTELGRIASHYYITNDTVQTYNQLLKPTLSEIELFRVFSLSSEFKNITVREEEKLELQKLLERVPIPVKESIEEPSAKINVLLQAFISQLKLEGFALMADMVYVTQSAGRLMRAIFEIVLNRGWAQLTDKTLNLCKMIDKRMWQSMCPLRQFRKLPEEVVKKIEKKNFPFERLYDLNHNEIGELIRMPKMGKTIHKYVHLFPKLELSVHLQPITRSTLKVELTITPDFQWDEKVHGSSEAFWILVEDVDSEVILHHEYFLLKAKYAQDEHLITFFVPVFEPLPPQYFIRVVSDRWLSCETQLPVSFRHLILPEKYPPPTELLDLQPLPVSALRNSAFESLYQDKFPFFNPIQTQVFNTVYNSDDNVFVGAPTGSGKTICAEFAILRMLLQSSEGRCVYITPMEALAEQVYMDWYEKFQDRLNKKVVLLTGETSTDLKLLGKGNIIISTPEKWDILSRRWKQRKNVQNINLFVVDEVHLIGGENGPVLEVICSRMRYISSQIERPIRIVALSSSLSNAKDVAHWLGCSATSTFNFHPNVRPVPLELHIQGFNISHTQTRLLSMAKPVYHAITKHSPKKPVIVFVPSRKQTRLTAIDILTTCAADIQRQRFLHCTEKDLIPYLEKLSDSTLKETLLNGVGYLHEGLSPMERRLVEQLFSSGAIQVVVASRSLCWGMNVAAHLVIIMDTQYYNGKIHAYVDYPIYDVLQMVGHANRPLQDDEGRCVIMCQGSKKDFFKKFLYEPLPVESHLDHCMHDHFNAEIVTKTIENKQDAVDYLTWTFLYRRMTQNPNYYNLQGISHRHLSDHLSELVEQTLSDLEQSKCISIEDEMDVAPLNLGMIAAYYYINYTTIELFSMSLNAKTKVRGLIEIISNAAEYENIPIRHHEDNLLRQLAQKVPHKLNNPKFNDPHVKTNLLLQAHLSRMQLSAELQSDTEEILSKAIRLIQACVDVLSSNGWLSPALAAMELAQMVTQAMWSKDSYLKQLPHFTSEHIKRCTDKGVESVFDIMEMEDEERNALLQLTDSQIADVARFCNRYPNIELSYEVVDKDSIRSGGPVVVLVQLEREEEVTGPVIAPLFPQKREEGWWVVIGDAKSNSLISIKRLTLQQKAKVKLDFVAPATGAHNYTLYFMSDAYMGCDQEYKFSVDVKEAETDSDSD
UniProt P09012: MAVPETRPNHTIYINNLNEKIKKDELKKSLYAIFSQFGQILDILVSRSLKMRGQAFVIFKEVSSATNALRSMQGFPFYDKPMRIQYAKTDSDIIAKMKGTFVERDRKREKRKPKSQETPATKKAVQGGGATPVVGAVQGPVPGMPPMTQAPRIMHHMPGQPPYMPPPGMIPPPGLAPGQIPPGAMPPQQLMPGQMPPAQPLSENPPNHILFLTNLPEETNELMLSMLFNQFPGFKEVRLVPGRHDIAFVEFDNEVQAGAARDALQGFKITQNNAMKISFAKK

Key:
[1] = target: ZNF207 K42E point mutant, 3xFLAG-tagged (human) (UniProt O43670); assay: co-IP; anti-FLAG M2 magnetic beads on benzonase-treated lysates of HEK293 Flp-In cells expressing FLAG-tagged ZNF207 or its mutants (doxycycline 0.5 ug/mL, 20 h); IGEPAL buffer (50 mM Tris-HCl pH 7.5, 150 mM NaCl, 1% IGEPAL CA-630, 5% glycerol), 4 C, 4.5 h, four washes; western blot of endogenous partners
[2] = target: ZNF207 open reading frame, siRNA-resistant, with a C-terminal 3xFLAG tag (wild type) (human) (UniProt O43670); assay: as above

binding [1]: binds | binding [2]: binds
Molecule: SF3B1 (from UniProt O75533 1-1304)

binding [2]: binds
Molecule: SNRNP70 (from UniProt P08621 1-437)

binding [2]: binds
Molecule: SNRNP200 (from UniProt O75643 1-2136)

binding [2]: binds
Molecule: SNRPA (from UniProt P09012 1-282)

binding [2]: binds
B1: PRPF6 (protein, UniProt O94906 1-941)
chain: MNKKKKPFLGMPAPLGYVPGLGRGATGFTTRSDIGPARDANDPVDDRHAPPGKRTVGDQMKKNQAADDDDEDLNDTNYDEFNGYAGSLFSSGPYEKDDEEADAIYAALDKRMDERRKERREQREKEEIEKYRMERPKIQQQFSDLKRKLAEVTEEEWLSIPEVGDARNKRQRNPRYEKLTPVPDSFFAKHLQTGENHTSVDPRQTQFGGLNTPYPGGLNTPYPGGMTPGLMTPGTGELDMRKIGQARNTLMDMRLSQVSDSVSGQTVVDPKGYLTDLNSMIPTHGGDINDIKKARLLLKSVRETNPHHPPAWIASARLEEVTGKLQVARNLIMKGTEMCPKSEDVWLEAARLQPGDTAKAVVAQAVRHLPQSVRIYIRAAELETDIRAKKRVLRKALEHVPNSVRLWKAAVELEEPEDARIMLSRAVECCPTSVELWLALARLETYENARKVLNKARENIPTDRHIWITAAKLEEANGNTQMVEKIIDRAITSLRANGVEINREQWIQDAEECDRAGSVATCQAVMRAVIGIGIEEEDRKHTWMEDADSCVAHNALECARAIYAYALQVFPSKKSVWLRAAYFEKNHGTRESLEALLQRAVAHCPKAEVLWLMGAKSKWLAGDVPAARSILALAFQANPNSEEIWLAAVKLESENDEYERARRLLAKARSSAPTARVFMKSVKLEWVQDNIRAAQDLCEEALRHYEDFPKLWMMKGQIEEQKEMMEKAREAYNQGLKKCPHSTPLWLLLSRLEEKIGQLTRARAILEKSRLKNPKNPGLWLESVRLEYRAGLKNIANTLMAKALQECPNSGILWSEAIFLEARPQRRTKSVDALKKCEHDPHVLLAVAKLFWSQRKITKAREWFHRTVKIDSDLGDAWAFFYKFELQHGTEEQQEEVRKRCESAEPRHGELWCAVSKDIANWQKKIGDILRLVAGRIKNTF
